Data from the supplement of paper PMC12067093, “Discovery and optimisation of a covalent ligand for TRIM25 and its application to targeted protein ubiquitination” (Chemical Science, 2025).
Some of the results follow.

Sequences of proteins named here, by UniProt entry; tags and fusion partners are left off. A change or cut given only in a name is not applied to a line headed by its entry.
UniProt Q6P1N9: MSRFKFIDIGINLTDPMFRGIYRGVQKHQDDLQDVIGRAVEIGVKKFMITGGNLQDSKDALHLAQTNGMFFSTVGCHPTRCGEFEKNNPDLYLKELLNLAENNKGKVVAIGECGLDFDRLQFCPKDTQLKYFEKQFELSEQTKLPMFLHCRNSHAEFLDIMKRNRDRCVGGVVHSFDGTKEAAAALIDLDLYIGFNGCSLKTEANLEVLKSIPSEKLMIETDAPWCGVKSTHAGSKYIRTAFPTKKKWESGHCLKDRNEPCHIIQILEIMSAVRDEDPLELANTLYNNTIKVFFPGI
UniProt P26639: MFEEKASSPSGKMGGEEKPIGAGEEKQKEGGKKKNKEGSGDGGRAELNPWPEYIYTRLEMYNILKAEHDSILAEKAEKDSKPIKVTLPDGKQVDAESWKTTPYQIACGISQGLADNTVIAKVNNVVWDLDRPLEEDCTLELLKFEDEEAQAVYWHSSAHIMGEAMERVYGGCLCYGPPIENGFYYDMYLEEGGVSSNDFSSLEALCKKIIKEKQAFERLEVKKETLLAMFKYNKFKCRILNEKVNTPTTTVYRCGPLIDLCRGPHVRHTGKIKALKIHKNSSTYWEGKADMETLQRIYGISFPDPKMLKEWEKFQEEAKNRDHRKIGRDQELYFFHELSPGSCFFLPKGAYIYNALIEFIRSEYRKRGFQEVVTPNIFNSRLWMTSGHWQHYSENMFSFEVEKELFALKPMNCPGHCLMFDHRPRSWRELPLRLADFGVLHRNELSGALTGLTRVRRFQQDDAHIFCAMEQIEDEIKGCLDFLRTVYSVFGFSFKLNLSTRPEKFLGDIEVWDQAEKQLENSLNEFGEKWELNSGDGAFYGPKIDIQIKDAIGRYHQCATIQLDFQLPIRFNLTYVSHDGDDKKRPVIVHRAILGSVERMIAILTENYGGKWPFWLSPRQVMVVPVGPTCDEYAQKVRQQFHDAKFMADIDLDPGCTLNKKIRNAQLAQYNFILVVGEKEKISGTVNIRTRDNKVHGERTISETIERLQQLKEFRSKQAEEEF
UniProt Q9UPU7: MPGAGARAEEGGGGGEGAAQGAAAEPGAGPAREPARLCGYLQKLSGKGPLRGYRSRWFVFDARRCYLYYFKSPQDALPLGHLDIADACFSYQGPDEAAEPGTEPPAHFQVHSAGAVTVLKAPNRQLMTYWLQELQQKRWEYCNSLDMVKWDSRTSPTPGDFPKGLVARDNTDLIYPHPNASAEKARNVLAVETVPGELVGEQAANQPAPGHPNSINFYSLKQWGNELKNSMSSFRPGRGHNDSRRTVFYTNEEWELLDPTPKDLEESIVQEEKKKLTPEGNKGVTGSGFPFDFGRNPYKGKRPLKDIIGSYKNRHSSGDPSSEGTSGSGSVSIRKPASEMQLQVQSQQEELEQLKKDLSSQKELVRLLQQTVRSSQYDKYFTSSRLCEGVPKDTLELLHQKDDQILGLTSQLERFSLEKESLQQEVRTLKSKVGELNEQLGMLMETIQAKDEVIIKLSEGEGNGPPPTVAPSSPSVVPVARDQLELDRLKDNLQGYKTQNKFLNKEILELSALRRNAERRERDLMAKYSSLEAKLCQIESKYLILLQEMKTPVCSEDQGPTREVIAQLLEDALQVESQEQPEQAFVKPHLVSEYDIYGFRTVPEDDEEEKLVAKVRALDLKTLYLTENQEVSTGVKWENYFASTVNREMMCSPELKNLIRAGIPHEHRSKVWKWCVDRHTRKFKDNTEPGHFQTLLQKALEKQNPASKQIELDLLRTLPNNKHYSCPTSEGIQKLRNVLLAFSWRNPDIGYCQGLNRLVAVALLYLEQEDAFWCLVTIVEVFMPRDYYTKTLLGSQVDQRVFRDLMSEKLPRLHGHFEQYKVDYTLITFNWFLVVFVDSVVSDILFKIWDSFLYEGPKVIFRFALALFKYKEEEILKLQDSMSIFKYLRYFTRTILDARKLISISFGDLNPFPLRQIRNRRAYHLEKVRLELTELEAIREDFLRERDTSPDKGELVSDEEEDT
UniProt Q15813: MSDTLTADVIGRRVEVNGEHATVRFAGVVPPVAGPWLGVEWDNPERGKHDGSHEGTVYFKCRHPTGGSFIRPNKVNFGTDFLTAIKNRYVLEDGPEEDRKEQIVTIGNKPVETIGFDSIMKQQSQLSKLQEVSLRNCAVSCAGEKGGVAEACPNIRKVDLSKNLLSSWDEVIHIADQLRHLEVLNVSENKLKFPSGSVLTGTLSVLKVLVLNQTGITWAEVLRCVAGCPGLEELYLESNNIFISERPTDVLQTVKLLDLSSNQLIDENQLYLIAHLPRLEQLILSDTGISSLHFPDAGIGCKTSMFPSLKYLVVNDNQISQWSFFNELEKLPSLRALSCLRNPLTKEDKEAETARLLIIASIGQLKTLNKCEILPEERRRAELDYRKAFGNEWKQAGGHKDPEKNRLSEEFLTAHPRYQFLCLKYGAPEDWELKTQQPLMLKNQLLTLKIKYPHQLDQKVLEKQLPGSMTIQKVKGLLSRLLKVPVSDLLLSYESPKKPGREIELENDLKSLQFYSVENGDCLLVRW
UniProt O75410: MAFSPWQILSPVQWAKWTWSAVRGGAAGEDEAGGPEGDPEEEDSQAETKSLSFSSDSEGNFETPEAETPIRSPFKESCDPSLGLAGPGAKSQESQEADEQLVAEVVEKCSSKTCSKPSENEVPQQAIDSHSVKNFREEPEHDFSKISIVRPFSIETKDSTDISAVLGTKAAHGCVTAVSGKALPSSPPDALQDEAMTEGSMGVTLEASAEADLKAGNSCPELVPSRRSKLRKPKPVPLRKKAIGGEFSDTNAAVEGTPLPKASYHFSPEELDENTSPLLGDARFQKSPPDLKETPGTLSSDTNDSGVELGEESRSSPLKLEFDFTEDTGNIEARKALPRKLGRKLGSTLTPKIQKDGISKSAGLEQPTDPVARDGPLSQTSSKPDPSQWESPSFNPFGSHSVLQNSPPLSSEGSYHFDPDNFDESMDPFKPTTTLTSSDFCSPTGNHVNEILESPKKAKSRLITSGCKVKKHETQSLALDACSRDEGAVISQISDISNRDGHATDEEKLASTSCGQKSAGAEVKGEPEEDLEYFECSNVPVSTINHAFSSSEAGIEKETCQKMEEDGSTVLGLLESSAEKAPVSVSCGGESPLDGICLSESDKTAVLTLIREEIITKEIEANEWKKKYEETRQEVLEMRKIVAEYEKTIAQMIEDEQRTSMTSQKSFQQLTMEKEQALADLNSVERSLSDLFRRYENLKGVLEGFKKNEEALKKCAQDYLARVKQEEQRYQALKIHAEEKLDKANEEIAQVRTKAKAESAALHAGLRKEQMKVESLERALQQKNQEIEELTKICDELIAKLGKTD
UniProt Q9C0D5: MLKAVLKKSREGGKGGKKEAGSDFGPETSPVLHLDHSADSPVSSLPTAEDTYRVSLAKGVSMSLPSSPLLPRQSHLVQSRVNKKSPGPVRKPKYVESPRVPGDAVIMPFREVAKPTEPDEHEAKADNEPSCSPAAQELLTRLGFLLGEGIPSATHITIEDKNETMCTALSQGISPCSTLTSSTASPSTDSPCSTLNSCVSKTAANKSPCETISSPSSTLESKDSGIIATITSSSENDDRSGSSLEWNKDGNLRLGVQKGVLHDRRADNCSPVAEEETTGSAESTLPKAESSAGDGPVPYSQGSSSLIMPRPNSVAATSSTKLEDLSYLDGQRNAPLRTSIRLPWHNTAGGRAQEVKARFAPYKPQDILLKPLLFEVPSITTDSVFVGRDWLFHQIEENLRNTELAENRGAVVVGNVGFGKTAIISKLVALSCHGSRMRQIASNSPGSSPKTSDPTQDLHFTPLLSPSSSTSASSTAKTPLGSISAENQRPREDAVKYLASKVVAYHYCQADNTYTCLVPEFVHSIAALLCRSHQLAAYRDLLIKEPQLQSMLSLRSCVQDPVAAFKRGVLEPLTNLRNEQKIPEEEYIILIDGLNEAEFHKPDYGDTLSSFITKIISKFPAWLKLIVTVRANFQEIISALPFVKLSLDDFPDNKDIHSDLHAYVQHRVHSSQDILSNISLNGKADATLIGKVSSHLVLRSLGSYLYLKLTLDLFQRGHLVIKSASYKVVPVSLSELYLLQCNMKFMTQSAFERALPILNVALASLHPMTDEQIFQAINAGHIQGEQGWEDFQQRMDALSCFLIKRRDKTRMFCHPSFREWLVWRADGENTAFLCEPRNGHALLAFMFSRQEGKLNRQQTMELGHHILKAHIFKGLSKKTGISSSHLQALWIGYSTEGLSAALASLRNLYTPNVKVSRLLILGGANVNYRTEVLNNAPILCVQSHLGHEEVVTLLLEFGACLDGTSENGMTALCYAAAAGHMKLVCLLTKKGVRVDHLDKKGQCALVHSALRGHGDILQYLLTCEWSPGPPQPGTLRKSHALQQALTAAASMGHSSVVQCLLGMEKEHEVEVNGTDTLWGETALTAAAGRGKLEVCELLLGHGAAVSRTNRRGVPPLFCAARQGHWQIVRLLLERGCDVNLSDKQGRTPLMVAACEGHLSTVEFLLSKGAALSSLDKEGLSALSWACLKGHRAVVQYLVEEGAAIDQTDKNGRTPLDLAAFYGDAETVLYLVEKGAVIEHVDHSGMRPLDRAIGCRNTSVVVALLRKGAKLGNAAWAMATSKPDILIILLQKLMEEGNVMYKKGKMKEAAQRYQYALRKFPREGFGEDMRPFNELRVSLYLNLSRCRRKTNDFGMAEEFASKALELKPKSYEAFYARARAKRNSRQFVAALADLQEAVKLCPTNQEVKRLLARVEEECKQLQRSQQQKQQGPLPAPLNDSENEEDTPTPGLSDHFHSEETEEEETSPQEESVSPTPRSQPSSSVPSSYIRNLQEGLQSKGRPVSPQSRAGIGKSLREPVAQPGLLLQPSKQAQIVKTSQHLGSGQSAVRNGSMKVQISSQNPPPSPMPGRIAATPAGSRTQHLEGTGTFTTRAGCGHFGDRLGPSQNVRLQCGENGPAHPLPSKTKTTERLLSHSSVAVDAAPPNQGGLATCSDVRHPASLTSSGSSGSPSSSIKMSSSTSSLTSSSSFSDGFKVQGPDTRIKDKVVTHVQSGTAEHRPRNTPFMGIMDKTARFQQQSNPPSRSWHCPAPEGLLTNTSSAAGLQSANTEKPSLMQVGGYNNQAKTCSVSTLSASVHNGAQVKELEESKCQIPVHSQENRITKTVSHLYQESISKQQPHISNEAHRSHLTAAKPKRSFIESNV
UniProt Q15542, whole entry, looked up: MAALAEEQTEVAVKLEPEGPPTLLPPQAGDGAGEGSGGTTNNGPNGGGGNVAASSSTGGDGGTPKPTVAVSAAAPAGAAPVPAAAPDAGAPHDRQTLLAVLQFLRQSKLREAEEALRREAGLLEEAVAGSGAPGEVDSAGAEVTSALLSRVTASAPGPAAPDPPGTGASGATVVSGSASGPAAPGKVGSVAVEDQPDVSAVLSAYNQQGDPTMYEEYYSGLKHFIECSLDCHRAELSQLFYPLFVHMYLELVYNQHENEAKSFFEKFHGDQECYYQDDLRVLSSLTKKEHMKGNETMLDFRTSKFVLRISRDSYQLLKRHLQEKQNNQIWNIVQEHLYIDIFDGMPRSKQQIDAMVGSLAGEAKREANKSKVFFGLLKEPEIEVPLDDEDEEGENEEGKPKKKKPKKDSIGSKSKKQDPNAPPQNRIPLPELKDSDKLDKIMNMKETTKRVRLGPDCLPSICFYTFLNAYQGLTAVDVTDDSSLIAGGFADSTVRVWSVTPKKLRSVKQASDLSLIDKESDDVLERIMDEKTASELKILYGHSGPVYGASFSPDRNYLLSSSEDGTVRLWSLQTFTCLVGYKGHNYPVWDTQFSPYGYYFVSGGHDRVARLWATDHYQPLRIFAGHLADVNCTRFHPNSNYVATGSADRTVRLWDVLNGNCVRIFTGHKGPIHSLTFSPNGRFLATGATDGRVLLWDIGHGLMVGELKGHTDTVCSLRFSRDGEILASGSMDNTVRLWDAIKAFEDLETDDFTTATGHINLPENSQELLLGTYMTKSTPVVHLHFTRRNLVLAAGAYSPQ
UniProt Q9NVG8: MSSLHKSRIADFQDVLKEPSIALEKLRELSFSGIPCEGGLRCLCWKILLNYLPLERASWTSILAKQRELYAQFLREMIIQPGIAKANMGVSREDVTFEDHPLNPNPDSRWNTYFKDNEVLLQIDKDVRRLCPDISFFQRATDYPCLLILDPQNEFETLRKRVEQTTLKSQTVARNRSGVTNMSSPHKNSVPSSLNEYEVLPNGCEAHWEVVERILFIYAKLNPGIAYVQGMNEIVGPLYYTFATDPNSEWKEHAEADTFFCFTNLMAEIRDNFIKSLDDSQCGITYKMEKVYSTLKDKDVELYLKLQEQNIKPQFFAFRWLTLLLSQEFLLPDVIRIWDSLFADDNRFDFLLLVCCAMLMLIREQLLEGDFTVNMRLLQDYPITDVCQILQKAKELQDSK
UniProt P37802: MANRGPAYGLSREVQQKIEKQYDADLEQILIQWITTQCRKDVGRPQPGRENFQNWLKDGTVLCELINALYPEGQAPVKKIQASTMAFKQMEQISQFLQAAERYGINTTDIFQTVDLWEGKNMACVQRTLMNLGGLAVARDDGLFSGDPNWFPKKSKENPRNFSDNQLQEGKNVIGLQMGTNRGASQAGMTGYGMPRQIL

Compound: CC1Cc2ccccc2N1C(=O)C1CCCN(C1)C(=O)CCl (mixture of isomers) [TRIM25 ligand 11 (diastereomer mixture)]
Test: probe-labelled cysteine peptide fold change vs DMSO (competition) (log2 fold change); higher = less target engagement (more negative = stronger competition)
Conditions: THP-1, incubation time: 4 h
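Also: competitive chemoproteomic profiling in live THP-1 cells with an iodoacetamide desthiobiotin (IA-DTB) probe, comparing probe-labelled peptide intensities in compound-treated cells against DMSO-treated controls.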

Row | Target | probe-labelled cysteine peptide fold change (10 µM) | probe-labelled cysteine peptide fold change (50 µM)
1 | TATDN1_Q6P1N9_150_LPMFLHCR (UniProt Q6P1N9) | -0.11 | -0.119
2 | TBRG4_Q969Z0_191_HLAFLAESCATLSQEQHSQELLAELLTHLER (UniProt Q969Z0) | -0.117 | -0.191
3 | TBCCD1_Q9NVR7_337_CNESFIYLLSPLR (UniProt Q9NVR7) | 0.259 | 0.229
4 | TARS_P26639_413+417_ELFALKPMNCPGHCLMFDHRPR (UniProt P26639) | -0.0314 | 0.0127
5 | TCEAL3_Q969E4_44_TECEGKREDEGEPGDEGQLEDEGSQEK (UniProt Q969E4) | -0.32 | 
6 | TBC1D5_Q92609_706_QASSETPGCTDR (UniProt Q92609) | -0.0244 | -0.083
7 | TADA2B_Q86TJ2_32+35_CTECQDIELCPECFSAGAEIGHHR (UniProt Q86TJ2) | 0.502 | 
8 | TBC1D2B_Q9UPU7_38_LCGYLQK (UniProt Q9UPU7) | -0.13 | -0.177
9 | TBCE_Q15813_371_CEILPEER (UniProt Q15813) | -0.11 | -0.0491
10 | TACC1_O75410_482_KHETQSLALDACSR (UniProt O75410) | 0.0569 | -0.387
11 | TANC1_Q9C0D5_1611_LQCGENGPAHPLPSK (UniProt Q9C0D5) | 0.129 | -0.149
12 | TBC1D1_Q86TI0_454_CLYEEK (UniProt Q86TI0) | 0.0241 | 0.0144
13 | TBC1D5_Q92609_192_ILTDVLFCYAR (UniProt Q92609) | 0.0186 | 0.0737
14 | TANC1_Q9C0D5_800_MDALSCFLIK (UniProt Q9C0D5) |  | 0.0229
15 | TACO1_Q9BSH4_160_CQADIR (UniProt Q9BSH4) | -0.00854 | 0.0462
16 | TBC1D2B_Q9UPU7_554_TPVCSEDQGPTR (UniProt Q9UPU7) | 0.021 | -0.103
17 | SYPL1_Q16563_193_IATGHNIIDELPPCK (UniProt Q16563) | 0.0551 | -0.0907
18 | TBCD_Q9BTW9_457_GACSVGTNVR (UniProt Q9BTW9) | 0.145 | 
19 | TBL3_Q12788_597_NNECVR (UniProt Q12788) | 0.0734 | 0.337
20 | TARS_P26639_254+261_CGPLIDLCR (UniProt P26639) | -0.109 | -0.0779
21 | SYK_P43405_101_THASPADLCHYHSQESDGLVCLLK (UniProt P43405) | 0.059 | -0.00167
22 | TBL2_Q9Y4P3_247_FVASCGFTPDVK (UniProt Q9Y4P3) | -0.0978 | -0.0254

Row | Target | probe-labelled cysteine peptide fold change (10 µM) | probe-labelled cysteine peptide fold change (50 µM)
23 | SYAP1_Q96A49_283_TQEDEEEISTSPGVSEFVSDAFDACNLNQEDLRK (UniProt Q96A49) | 0.134 | 0.0906
24 | TAF5_Q15542_273_FHGDQECYYQDDLR (UniProt Q15542) | 0.241 | -0.0768
25 | TBC1D15_Q8TC07_184_YVVLCESPQDKR (UniProt Q8TC07) |  | 0.0631
26 | TAF2_Q6P1X5_357_CLAQSLAQQFFGCFISR (UniProt Q6P1X5) |  | -0.862
27 | TBC1D13_Q9NVG8_131_RLCPDISFFQR (UniProt Q9NVG8) | -0.0127 | 0.0373
28 | TARDBP_Q13148_39_VTEDENDEPIEIPSEDDGTVLLSTVTAQFPGACGLR (UniProt Q13148) | -0.206 | 0.0368
29 | TBC1D5_Q92609_219_QGMHELLAPIVFVLHCDHQAFLHASESAQPSEEMK (UniProt Q92609) | 0.192 | -0.161
30 | TADA3_O75528_255_SEAQHEQPEDGCPFGALTQR (UniProt O75528) | -0.0901 | -0.151
31 | TACC3_Q9Y6A5_749_CVEDYLAR (UniProt Q9Y6A5) | 0.00804 | -0.139
32 | TACC3_Q9Y6A5_662_CEELHGK (UniProt Q9Y6A5) | -0.00897 | -0.0764
33 | TARSL2_A2RTX5_546_FQQDDAHIFCTVEQIEEEIK (UniProt A2RTX5) |  | 0.235
34 | TATDN1_Q6P1N9_253_KWESGHCLK (UniProt Q6P1N9) | 0.0664 | -0.0599
35 | TAF5_Q15542_632_IFAGHLADVNCTR (UniProt Q15542) | 0.247 | 0.266
36 | TBL3_Q12788_298_VWEAASGQCVYTQAQPPGPGQELTHCTLAHTAGVVLTATADHNLLLYEAR (UniProt Q12788) | 0.0769 | -0.123
37 | SYK_P43405_593+597_MGCPAGCPR (UniProt P43405) | 0.16 | 0.0781
38 | TACC1_O75410_715_CAQDYLAR (UniProt O75410) | -0.0907 | -0.226
39 | TAOK2_Q9UL54_623_EQLQQCQAEEEAGLLRR (UniProt Q9UL54) | 0.037 | -0.0688
40 | TANC1_Q9C0D5_1023_GHGDILQYLLTCEWSPGPPQPGTLR (UniProt Q9C0D5) | 0.153 | 0.0587
41 | SWAP70_Q9UH65_94_MCWTLCVK (UniProt Q9UH65) | 0.0436 | 0.153
42 | TBC1D24_Q9ULP9_404_EVCGAYLSTDWSER (UniProt Q9ULP9) | 0.0351 | 0.172
43 | TAGLN2_P37802_63_DGTVLCELINALYPEGQAPVKK (UniProt P37802) | -0.273 | -0.222
44 | TACC1_O75410_174_AAHGCVTAVSGK (UniProt O75410) | -0.0137 | -0.145
